According to the supplement of paper PMC10735217:
Structures can show the parent of a compound that is named as a salt. The list shows a part of the results. Single values are uncertain here, since repeats match poorly.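 The human kidney-derived cells carry a stably integrated construct of eight TEAD-binding elements driving luciferase, read by luminescence in a drug-repurposing library screen. A compound counts as a hit when its signal is more than five robust Z scores above the plate mean.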

System: HEK293A TEAD-LUC reporter
Test: TEAD-luciferase reporter activity (YAP activation), robust Z score vs plate; higher = stronger YAP/TEAD activation
Details: 24 h

| SMILES | TEAD-luciferase reporter activity (compound concentration: 200 nM) | TEAD-luciferase reporter activity (compound concentration: 2 uM) | TEAD-luciferase reporter activity (compound concentration: 10 uM) |
| --- | --- | --- | --- |
| Nc1ncnc2c1ncn2[C@@H]1C[C@H](O)[C@H](CO)O1 [beta-L-dA] | inactive: -0.94 | inactive: -1.24 | inactive: 0.302 |
| CCC(=O)Nc1c(C)cc(C(=O)N2CCC(N(C)CCc3ccccc3)CC2)cc1C | inactive: -1.4 | inactive: 3.76 | active: 8.13 |
| O=C(O)c1ccccc1 | inactive: 0.0562 | inactive: -1.41 | inactive: 1.23 |
| CN(C)C(=O)CCSC(SCCC(=O)O)c1cccc(C=Cc2ccc3ccc(Cl)cc3n2)c1 (centres undefined) | inactive: -0.513 | inactive: 0.869 | active: 5.11 |
| CC(=O)[C@H]1CCC2C3CC=C4C[C@@H](O)CC[C@]4(C)C3CC[C@@]21C (some centres undefined) [pregnenolone, Mattern] | inactive: 0.62 | inactive: -0.676 | inactive: 0.426 |
| O=C(O)C[C@@H]1NC(=O)CNC1=O | inactive: 0.434 | inactive: 1.53 | inactive: 0.21 |
| Cc1nc(-c2ccc(OCCCCCOc3ccc(/C(N)=N/O)cc3)cc2)c(C(C)C)s1 | inactive: -0.712 | inactive: 0.528 | inactive: -1.37 |
| Nc1ccc2c(c1)CN1C(=O)c3ccccc3C1=N2 | inactive: 0.0732 | inactive: -2.8 | inactive: -2.42 |
| CC(C)C(=O)NCCNCC(O)COc1ccccc1 (centres undefined) | inactive: -2.01 | inactive: -0.724 | inactive: -0.208 |
| COc1cccc(/C=C/c2nc3sccn3c(=O)c2-c2ccc(OC(F)(F)F)cc2)c1OCC1CC1 | inactive: 0.0235 | inactive: -1.08 | inactive: -0.505 |
| OC[C@@]1(O)OC[C@@H](O)[C@@H](O)[C@@H]1O [Tagatose] | inactive: 0.318 | inactive: -2 | inactive: 0.634 |
| CC1=NN(c2ccccc2)C(=O)C1 | – | inactive: -1.58 | – |
| CC1=NN(c2ccccc2)C(=O)C1 [edaravone] | inactive: -0.583 | inactive: 0.268 | inactive: 0.441 |
| O=C([O-])c1nc(=O)[nH]c(=O)[nH]1 [Oteracil potassium] | inactive: -0.221 | – | inactive: 0.711 |
| CCCCCCCCCCCCC(C#N)(CCCN(C)CCc1ccccc1)c1ccccc1 (centres undefined) | inactive: 1.16 | inactive: -0.594 | inactive: -1.38 |
| O=C(CC1CCN(CCn2c(=O)[nH]c3ccccc3c2=O)C1)c1ccc(F)cc1 (centres undefined) | inactive: -0.839 | inactive: -0.186 | inactive: 1.9 |
| Nc1ccc2c(c1)C(=O)NC(CCCl)O2 (centres undefined) | inactive: -1.66 | inactive: -0.577 | inactive: -1.95 |
| CC[N+](CC)(CC)CCOc1cccc(OCC[N+](CC)(CC)CC)c1OCC[N+](CC)(CC)CC [Gallamine triethiodide (Flaxedil)] | inactive: -1.91 | inactive: 1.09 | inactive: 0.976 |
| CS(=O)(=O)c1cccc(C[C@H](NC(=O)c2c(Cl)cc3c(c2Cl)CCN(C(=O)c2ccc4ccoc4c2)C3)C(=O)O)c1 [lifitegrast] | inactive: 2.78 | inactive: -0.104 | inactive: -1.24 |
| COc1ccc(OC2CN(Cc3ccc(C(F)(F)F)cc3)C2)cc1 | inactive: -0.463 | – | inactive: -0.0388 |

| SMILES | TEAD-luciferase reporter activity (compound concentration: 200 nM) | TEAD-luciferase reporter activity (compound concentration: 2 uM) | TEAD-luciferase reporter activity (compound concentration: 10 uM) |
| --- | --- | --- | --- |
| Cc1cnc2c(c1)nc(C1CCCCC1)n2Cc1ccc(C(=O)O)cc1 | inactive: -0.804 | inactive: -0.838 | inactive: -1.03 |
| Cc1cc(C)cc(-c2ccc(CN3CCCC3C(=O)NCC3CC3)cc2)c1 (centres undefined) | inactive: -2.51 | – | inactive: 0.605 |
| O=C1CC2(CCCC2)CC(=O)N1CCNCC1COc2ccccc2O1 (centres undefined) [Binospirone mesylate] | – | inactive: 0.885 | – |
| O=C1CC2(CCCC2)CC(=O)N1CCNCC1COc2ccccc2O1 (centres undefined) | inactive: 2.48 | – | inactive: 1.43 |
| CCCCOC(=O)C(=O)Nc1cccc(-c2nnn[nH]2)c1 | inactive: -1.55 | inactive: -1.24 | inactive: -0.288 |
| CN(NC(=O)c1ccc(Cl)c(S(N)(=O)=O)c1)c1ccccc1 [metipamide] | inactive: -0.843 | inactive: 0.098 | inactive: 1.1 |
| Cc1cc(C)c2cccc(OCc3c(Cl)ccc(S(=O)(=O)N4CCC[C@H]4C(=O)NCCCNC(=O)c4ccc(C(=N)N)cc4)c3Cl)c2n1 | inactive: -0.425 | inactive: -0.194 | inactive: 1.45 |
| O=C1NCc2ccccc2CC12CCCN2Cc1ccc(F)cc1F (centres undefined) | inactive: 0.322 | – | inactive: 0.556 |
| CCCCOC(=O)CN1CCC(NC(=O)c2cc(Cl)c(N)cc2OC)CC1 | inactive: -1.28 | inactive: -0.313 | inactive: 0.364 |
| CC12CCC(C(C(=O)O)C1=O)C2(C)C (centres undefined) | inactive: -0.667 | inactive: -0.933 | inactive: 0.903 |
| CC(C)OC(=O)N1CCC(C)(N2CCC(N3C(=O)N[C@H]4CCCC[C@@H]43)CC2)CC1 [a possible structure for AZD-6088] | inactive: 0.578 | inactive: -0.187 | inactive: 0.271 |
| Nc1ncnc2c1ncn2C1OC(CO)CC1O (centres undefined) [cordycepin, OXiGENE] | inactive: -0.837 | inactive: -1.75 | inactive: -1.91 |
| CC1(C)CC(=O)c2c(SCCO)sc(-c3nccs3)c2C1 | inactive: -0.244 | inactive: -0.778 | inactive: -0.358 |
| O=C1CCC(C(=O)N2CCCCC2)N1 (centres undefined) [Fasoracetam] | inactive: -0.606 | inactive: -0.716 | inactive: 0.41 |
| COc1cc(C(=O)N(C(C)C)C(C)C)ccc1OCCCCOc1ccc2c(N)noc2c1 | inactive: -0.887 | inactive: -0.423 | inactive: -1.46 |
| CC(C)N1CCN(C(C)C)C(=C2NCCN2)C1 | inactive: -2.15 | inactive: 0.668 | inactive: 0.628 |
| CNCC(O)C(O)C(O)C(O)CO (centres undefined) [etodolac meglumine] | inactive: 0.613 | – | inactive: 0.313 |
| CNCC(O)C(O)C(O)C(O)CO (centres undefined) [meglumine] | – | inactive: -1.21 | – |
| O=C(O)CCCCc1cn(-c2ccccn2)c2ccccc12 | inactive: -2.1 | – | inactive: 0.572 |
| CN(C)CC/C=C1/c2ccccc2Sc2ccc(Cl)cc21 [Chlorprothixene] | inactive: 0.674 | inactive: -0.887 | inactive: 0.588 |

Complete entries, quoted from the list:
CNCC(O)C(O)C(O)C(O)CO (centres undefined) [meglumine] is entered as TEAD-luciferase reporter activity (compound concentration: 2 uM): inactive: -1.21
Nc1ccc2c(c1)C(=O)NC(CCCl)O2 (centres undefined) is entered as TEAD-luciferase reporter activity (compound concentration: 200 nM): inactive: -1.66; TEAD-luciferase reporter activity (compound concentration: 2 uM): inactive: -0.577; TEAD-luciferase reporter activity (compound concentration: 10 uM): inactive: -1.95
O=C(CC1CCN(CCn2c(=O)[nH]c3ccccc3c2=O)C1)c1ccc(F)cc1 (centres undefined) is entered as TEAD-luciferase reporter activity (compound concentration: 200 nM): inactive: -0.839; TEAD-luciferase reporter activity (compound concentration: 2 uM): inactive: -0.186; TEAD-luciferase reporter activity (compound concentration: 10 uM): inactive: 1.9
CN(NC(=O)c1ccc(Cl)c(S(N)(=O)=O)c1)c1ccccc1 [metipamide] is entered as TEAD-luciferase reporter activity (compound concentration: 200 nM): inactive: -0.843; TEAD-luciferase reporter activity (compound concentration: 2 uM): inactive: 0.098; TEAD-luciferase reporter activity (compound concentration: 10 uM): inactive: 1.1

Continuation:

| SMILES | TEAD-luciferase reporter activity (compound concentration: 200 nM) | TEAD-luciferase reporter activity (compound concentration: 2 uM) | TEAD-luciferase reporter activity (compound concentration: 10 uM) |
| --- | --- | --- | --- |
| COc1cc(/C=C/C(=O)CC(C)=O)ccc1O | – | inactive: -0.308 | – |
| COc1cccc(C(=O)NC2CCN(C(=O)c3ccc(-c4ccccc4OC)cc3)CC2)c1 | inactive: 2.01 | – | inactive: 1.8 |
| CNc1nc(-c2cccc(NC(=O)c3ccc(C(=O)OC)cc3)c2)c2cc(OC)c(OC)cc2n1 | inactive: -0.469 | inactive: -1.23 | inactive: -1.49 |
| CC(C)Cn1ncc2cc(Oc3ccc(F)cc3F)c(C(=O)NCCN(C)C)cc21 | inactive: -1.51 | inactive: -0.72 | inactive: 0.687 |
| O=C(O)/C=C/c1c[nH]cn1 [cis-urocanic acid, emulsion] | – | inactive: -1.75 | – |
| O=C(O)/C=C/c1c[nH]cn1 [cis-urocanic acid, emulsion, BioCis] | inactive: -0.479 | – | inactive: 2.17 |
| Cc1ccc(NC(=O)C2(c3ccc4c(c3)OC(F)(F)O4)CC2)nc1-c1cccc(C(=O)O)c1 [lumacaftor] | – | inactive: -0.936 | – |
| Cc1ccc(NC(=O)C2(c3ccc4c(c3)OC(F)(F)O4)CC2)nc1-c1cccc(C(=O)O)c1 [VX-809 (Lumacaftor)] | inactive: -2.19 | – | inactive: 1.36 |
| O=C(Nc1ccccc1)c1cc(CN2CCCC2)c(O)c(CN2CCCC2)c1 | inactive: 0.188 | inactive: -1.27 | inactive: -1.19 |
| COc1cc(C)c(-c2c(C)nn3c(=O)[nH]c(C)nc23)c(OC)c1 | inactive: 2.04 | inactive: -0.515 | inactive: 0.36 |
| CCOC(=O)C1=C(C)NC(C)=C(C(=O)OC)C1c1cccc([N+](=O)[O-])c1 (centres undefined) [Nitrendipine] | inactive: -0.284 | inactive: 0.0814 | inactive: 0.504 |
| O=C1CCCN1C1CCN(Cc2ccccc2)CC1 | inactive: 0.434 | – | inactive: 0.69 |
| O=C(O)CCn1c2c(c3ccccc31)C[C@H](NS(=O)(=O)c1ccc(F)cc1)CC2 [ramatroban] | inactive: -0.389 | inactive: -2.56 | inactive: 0.949 |
| N/C=C1\Cc2ccccc2C1=O | inactive: -1.5 | inactive: -0.987 | inactive: -0.376 |
| CC(C)C[C@H](NC(=O)CC[C@@H](C)[C@H]1CC[C@H]2[C@@H]3[C@H](O)C[C@@H]4C[C@H](O)CC[C@]4(C)[C@H]3C[C@H](O)[C@]12C)C(=O)N[C@H](C(=O)N[C@@H](Cc1ccccc1)C(=O)N[C@@H](Cc1ccccc1)C(=O)N[C@@H](C)C(=O)O)C(C)C | inactive: 0.0431 | inactive: -0.144 | inactive: 0.809 |
| c1cc2c(cc1C1CCCCC1)c1c3n2CCNC3CCC1 (centres undefined) [Tetrindole] | inactive: 2.91 | inactive: -1.24 | inactive: -0.936 |
| CC1(C)[C@@H]2CC[C@@]1(C)C(=O)C2 [camphor transdermal, Cpex] | inactive: -1.26 | – | inactive: 0.886 |
| CC1(C)[C@@H]2CC[C@@]1(C)C(=O)C2 [camphor transdermal] | – | inactive: -1.31 | – |
| O=c1ccc2cc3ccoc3cc2o1 [Psoralen] | inactive: -0.79 | inactive: 2.34 | inactive: 0.702 |
| Cc1nccn1Cc1ccccn1 | inactive: 0.533 | inactive: 0.585 | inactive: 3.63 |
